Measurements from the supplement of paper PMC10849652.
This is one part of the list.

By UniProt entry, the sequences of proteins in these tests, tags left out. Where a name states a change or a piece, a line headed by the entry shows the natural chain unless it says otherwise.
UniProt Q92879: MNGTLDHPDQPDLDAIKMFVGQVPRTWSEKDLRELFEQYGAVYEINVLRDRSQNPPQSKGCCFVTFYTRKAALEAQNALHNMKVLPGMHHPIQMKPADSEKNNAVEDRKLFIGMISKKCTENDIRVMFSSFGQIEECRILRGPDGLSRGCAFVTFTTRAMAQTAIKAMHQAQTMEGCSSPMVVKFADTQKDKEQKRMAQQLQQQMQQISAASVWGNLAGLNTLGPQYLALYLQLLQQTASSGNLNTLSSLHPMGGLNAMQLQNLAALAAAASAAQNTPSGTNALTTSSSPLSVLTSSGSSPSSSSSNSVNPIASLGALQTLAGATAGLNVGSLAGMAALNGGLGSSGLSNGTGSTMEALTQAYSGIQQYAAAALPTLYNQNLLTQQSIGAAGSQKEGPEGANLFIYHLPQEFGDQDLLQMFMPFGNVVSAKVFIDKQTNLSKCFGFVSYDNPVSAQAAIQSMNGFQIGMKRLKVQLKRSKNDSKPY
UniProt P30305: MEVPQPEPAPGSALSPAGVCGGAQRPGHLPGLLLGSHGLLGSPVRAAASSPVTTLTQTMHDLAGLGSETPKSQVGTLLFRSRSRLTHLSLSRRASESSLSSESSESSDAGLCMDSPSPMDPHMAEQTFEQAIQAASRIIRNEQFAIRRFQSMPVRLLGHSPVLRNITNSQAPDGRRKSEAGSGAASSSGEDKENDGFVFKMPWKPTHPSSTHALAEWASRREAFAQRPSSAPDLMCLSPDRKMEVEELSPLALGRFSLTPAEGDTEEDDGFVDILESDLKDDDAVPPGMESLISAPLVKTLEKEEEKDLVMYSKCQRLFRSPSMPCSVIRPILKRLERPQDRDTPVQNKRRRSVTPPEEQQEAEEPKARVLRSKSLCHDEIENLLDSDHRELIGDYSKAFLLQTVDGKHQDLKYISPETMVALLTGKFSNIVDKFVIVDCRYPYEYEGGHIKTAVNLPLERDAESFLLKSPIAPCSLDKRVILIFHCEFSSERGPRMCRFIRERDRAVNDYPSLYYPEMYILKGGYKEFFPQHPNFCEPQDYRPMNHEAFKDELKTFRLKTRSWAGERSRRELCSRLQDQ
UniProt A8MTT3: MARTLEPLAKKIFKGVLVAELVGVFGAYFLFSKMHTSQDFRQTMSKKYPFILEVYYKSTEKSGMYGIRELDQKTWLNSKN
UniProt P49918: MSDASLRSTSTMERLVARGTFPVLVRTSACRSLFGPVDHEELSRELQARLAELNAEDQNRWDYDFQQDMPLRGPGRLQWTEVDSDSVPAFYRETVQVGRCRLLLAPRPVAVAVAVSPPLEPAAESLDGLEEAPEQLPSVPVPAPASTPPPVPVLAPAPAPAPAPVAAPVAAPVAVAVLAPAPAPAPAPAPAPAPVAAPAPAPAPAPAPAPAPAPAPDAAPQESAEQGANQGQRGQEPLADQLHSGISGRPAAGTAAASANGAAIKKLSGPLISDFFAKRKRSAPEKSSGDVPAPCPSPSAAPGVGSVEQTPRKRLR
UniProt Q6ZTR5: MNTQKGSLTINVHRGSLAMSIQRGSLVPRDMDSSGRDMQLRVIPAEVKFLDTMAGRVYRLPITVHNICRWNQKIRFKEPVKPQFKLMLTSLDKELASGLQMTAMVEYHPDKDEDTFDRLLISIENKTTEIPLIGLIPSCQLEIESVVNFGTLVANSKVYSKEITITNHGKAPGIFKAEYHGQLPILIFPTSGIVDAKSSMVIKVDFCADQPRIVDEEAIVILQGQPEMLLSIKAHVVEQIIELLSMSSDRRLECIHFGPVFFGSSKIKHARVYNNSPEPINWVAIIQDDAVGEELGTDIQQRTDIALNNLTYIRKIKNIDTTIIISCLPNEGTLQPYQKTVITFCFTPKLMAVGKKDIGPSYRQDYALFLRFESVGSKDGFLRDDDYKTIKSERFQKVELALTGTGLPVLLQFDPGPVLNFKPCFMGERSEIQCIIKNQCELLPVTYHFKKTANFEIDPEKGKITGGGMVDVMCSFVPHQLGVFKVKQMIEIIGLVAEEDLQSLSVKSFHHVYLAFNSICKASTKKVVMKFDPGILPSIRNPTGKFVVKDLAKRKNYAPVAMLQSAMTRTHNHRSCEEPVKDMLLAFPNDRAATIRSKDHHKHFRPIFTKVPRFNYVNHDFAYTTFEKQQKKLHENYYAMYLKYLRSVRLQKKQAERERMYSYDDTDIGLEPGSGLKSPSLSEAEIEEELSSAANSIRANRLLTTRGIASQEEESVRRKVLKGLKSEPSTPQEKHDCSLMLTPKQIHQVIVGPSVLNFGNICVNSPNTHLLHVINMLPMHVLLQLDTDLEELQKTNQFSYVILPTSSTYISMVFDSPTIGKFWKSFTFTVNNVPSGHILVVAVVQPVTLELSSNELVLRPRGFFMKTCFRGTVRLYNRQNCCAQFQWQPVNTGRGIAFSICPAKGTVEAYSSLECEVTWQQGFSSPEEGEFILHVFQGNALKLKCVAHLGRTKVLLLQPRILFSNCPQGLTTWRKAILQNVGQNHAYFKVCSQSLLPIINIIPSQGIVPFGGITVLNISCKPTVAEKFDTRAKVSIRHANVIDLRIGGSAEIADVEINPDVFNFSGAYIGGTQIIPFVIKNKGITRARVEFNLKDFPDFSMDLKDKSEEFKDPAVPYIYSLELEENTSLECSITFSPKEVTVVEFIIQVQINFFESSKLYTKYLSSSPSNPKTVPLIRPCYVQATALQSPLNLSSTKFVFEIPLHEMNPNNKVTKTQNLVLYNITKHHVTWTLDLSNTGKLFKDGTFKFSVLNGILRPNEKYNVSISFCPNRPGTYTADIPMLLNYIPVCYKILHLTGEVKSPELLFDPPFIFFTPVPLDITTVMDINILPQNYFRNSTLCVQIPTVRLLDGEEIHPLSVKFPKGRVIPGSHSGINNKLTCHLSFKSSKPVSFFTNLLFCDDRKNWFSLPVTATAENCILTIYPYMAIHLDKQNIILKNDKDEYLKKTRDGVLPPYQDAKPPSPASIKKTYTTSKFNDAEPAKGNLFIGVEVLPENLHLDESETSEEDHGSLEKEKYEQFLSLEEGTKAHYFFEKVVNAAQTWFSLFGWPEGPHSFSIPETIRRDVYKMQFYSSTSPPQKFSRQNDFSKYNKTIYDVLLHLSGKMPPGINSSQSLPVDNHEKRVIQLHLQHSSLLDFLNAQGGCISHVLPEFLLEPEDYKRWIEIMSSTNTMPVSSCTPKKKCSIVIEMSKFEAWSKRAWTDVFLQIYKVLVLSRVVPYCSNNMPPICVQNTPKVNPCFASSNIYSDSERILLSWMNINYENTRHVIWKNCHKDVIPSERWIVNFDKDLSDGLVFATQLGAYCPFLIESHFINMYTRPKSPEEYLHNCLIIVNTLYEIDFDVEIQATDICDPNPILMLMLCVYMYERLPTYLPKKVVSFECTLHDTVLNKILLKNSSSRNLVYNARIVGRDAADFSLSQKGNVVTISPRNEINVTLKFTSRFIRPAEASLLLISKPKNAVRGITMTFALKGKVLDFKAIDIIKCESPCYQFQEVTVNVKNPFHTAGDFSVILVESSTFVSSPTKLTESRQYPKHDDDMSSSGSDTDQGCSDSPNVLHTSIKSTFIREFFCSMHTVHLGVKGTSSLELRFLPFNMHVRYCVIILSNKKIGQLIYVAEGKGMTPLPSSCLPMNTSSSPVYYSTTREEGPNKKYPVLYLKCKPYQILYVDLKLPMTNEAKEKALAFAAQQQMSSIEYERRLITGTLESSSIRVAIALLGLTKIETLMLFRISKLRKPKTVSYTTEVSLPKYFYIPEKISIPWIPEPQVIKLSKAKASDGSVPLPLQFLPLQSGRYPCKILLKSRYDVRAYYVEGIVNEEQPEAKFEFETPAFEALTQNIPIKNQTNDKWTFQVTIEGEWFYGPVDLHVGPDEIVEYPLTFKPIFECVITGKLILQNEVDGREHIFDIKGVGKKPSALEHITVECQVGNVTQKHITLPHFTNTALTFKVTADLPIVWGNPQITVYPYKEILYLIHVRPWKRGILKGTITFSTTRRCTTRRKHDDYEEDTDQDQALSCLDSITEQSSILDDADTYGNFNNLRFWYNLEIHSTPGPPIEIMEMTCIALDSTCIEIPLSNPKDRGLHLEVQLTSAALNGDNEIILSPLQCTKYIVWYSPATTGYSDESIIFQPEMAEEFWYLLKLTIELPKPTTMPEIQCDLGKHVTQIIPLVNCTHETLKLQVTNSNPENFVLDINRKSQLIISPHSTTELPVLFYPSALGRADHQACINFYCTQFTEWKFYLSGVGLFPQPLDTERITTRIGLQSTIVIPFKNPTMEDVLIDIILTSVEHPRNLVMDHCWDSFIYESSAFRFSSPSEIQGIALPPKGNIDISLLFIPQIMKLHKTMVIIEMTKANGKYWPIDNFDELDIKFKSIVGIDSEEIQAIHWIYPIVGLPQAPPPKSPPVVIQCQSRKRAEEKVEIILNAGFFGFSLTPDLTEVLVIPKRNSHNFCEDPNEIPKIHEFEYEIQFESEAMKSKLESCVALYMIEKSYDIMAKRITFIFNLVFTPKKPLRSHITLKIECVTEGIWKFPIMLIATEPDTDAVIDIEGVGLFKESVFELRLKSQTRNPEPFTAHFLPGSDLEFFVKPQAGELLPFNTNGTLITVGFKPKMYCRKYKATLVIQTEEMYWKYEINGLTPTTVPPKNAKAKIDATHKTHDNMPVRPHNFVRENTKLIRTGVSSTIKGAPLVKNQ
UniProt O43822: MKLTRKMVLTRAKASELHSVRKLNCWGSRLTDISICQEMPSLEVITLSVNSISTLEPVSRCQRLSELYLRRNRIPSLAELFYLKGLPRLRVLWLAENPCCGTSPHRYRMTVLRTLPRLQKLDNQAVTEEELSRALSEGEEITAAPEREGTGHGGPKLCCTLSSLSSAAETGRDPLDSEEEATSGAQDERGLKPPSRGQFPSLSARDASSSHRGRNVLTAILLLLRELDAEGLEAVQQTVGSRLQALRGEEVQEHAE
UniProt P23528, whole entry, looked up: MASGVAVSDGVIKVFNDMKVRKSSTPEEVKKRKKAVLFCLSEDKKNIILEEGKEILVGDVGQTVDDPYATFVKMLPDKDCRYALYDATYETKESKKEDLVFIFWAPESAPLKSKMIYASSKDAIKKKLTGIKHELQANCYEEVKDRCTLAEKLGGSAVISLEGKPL
UniProt Q99618: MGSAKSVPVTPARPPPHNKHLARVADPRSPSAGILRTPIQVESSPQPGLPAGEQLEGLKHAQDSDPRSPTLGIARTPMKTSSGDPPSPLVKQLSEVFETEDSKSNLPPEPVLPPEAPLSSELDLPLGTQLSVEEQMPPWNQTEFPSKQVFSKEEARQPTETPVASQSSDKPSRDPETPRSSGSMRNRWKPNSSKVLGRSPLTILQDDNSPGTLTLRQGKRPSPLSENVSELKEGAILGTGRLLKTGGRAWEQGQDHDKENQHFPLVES
UniProt Q86X02: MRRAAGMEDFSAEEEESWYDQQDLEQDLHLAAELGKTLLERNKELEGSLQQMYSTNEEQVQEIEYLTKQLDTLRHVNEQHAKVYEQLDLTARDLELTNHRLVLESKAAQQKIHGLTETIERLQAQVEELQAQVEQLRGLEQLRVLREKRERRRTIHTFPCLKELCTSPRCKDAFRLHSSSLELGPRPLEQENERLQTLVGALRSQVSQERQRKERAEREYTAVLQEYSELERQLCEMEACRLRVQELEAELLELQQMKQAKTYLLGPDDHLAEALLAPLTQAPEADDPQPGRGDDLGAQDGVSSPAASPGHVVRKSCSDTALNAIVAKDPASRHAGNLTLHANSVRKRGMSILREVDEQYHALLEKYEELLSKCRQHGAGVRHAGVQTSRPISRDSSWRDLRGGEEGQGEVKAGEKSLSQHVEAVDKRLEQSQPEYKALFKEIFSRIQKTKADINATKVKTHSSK
UniProt O95674: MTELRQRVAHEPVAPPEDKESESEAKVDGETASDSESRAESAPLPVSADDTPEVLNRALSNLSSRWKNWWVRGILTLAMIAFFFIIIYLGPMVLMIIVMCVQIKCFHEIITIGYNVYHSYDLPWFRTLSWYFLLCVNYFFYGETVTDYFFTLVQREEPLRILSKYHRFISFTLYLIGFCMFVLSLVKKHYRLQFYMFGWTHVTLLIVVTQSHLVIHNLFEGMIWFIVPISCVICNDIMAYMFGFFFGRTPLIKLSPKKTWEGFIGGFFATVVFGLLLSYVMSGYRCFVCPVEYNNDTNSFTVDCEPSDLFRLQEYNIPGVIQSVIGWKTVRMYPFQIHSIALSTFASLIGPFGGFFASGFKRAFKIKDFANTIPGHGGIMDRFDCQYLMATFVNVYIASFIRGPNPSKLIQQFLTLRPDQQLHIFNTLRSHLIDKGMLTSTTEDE
UniProt Q9NRR3: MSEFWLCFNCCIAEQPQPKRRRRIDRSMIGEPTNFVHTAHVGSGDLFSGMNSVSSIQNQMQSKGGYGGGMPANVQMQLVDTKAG
UniProt Q8NHZ8, whole entry, looked up: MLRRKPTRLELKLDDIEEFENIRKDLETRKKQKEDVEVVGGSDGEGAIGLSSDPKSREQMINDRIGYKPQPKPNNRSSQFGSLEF
UniProt P41208: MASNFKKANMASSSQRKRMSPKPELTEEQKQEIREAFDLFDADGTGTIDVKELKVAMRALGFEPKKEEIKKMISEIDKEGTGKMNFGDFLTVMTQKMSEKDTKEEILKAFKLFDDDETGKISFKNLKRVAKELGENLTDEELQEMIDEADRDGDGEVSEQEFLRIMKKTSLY

compound: O=C(CCCCCCC(=O)Nc1ccccc1)NO [vorinostat]; assay: log2 fold change, soluble protein after heating vs DMSO (PISA); higher = thermal stabilisation; K562 lysate, 10 uM; active = over 0.2 and 3.5 SD of the protein, either way, in both replicates (recomputed)
Procedure, shortened: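 Following dounce homogenisation of K562 pellets in PBS pH 7.4 with 1 mM MgCl2, crude extract at 1 mg/mL protein was incubated for 30 min with 10 μM compound. Aliquots were then heated for 3 min over 48°C-58°C and pooled, NP-40 was added to 0.5% at 4°C, and soluble protein was recovered as the supernatant at 21,000xg for 90 min. Channel-sum-equalised TMTpro 16plex LC-MS/MS quantified this protein. Each value, from duplicates, is a log-two fold change in thermal stability relative to solvent controls.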

log2 fold change, active:
CELF1 isoform 4 (UniProt Q92879) -0.347
CDC16 (UniProt Q13042) -0.265

log2 fold change, inactive:
CDC25B (UniProt P30305) -0.021
CDCA2 (UniProt Q69YH5) 0.1
CEBPZOS (UniProt A8MTT3) 0.082
CDCA5 (UniProt Q96FF9) -0.194
CDKN1C (UniProt P49918) 0.058
CFAP47 (UniProt Q6ZTR5) 0.237
CDKN2AIP (UniProt Q9NXV6) 0.072
CDC123 (UniProt O75794) -0.019
CDC73 (UniProt Q6P1J9) -0.205
CDK2 (UniProt P24941) 0.006
CDK5RAP3 isoform 4 (UniProt Q96JB5) 0.026
CDC37L1 (UniProt Q7L3B6) -0.161
CFAP410 (UniProt O43822) -0.147
CEBPZ (UniProt Q03701) -0.156
CFL1 (UniProt P23528) 0.059
CDK5 (UniProt Q00535) -0.232
CDCA3 (UniProt Q99618) 0.136
CENPQ (UniProt Q7L2Z9) 0.061
CDR2L (UniProt Q86X02) -0.01
CENPK (UniProt Q9BS16) 0.031
CENPE (UniProt Q02224) -0.186
CDS2 (UniProt O95674) 0.093
CENPF (UniProt P49454) -0.027
CEBPB (UniProt P17676) -0.126
CDC42SE2 (UniProt Q9NRR3) 0.203
CEP170 (UniProt Q5SW79) -0.018
CDC26 (UniProt Q8NHZ8) 0.084
CD97 (UniProt P48960) 0.105
CETN2 (UniProt P41208) 0.009
CDK9 isoform 2 (UniProt P50750) -0.198

Pulled one by one from above, 2 records:
log2 fold change, inactive:
CDS2 (UniProt O95674) 0.093
CDK5 (UniProt Q00535) -0.232
